Measurements from publication PMC5839063.
Construct, isoform or probe ends are uncertain for at least one entry. No signal at the amounts used counts as a negative. Tags and fusion partners may be left off the protein sequences shown.

target: T1, ArgR (Streptomyces coelicolor M145) (UniProt Q9L1A5); test: EMSA; details: L-arginine (10 mM in binding buffer); 15 uL reaction with 5 uL buffer (10 mM Tris-HCl pH 7.4, 5 mM MgCl2, 2.5 mM CaCl2, 250 mM KCl, 0.5 mM DTT, 10 mM L-arginine), poly(dIdC) 1.3 ug/mL, 10% glycerol; recombinant protein; protein details: Strep-tag; label: 6-FAM; flanks not given
T1 sequence (looked up, limits assumed): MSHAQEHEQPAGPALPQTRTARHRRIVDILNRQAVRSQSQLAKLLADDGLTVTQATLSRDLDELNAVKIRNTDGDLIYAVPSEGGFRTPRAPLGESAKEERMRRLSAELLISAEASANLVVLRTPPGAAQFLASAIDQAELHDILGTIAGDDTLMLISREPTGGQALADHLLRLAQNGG

Sequence	binding result
CGGCCGAGGTCCACTGCGCCATGGAAATCAGTCCACCTTCCCCAAATTGGCCATGGTTGACTCTTCTTCTGAAGCCACAGGGTGTCATGTGGCAGTCCACTACCACCACCCCAGGGGGCACTTCTTGTCCAGGCAGTCCAGACAGTCGAGGCAATCCGGGCAGTCCGGATGGTCCGGGCGACTCGCGCGGCGGCTGACGCAGCTCTACGGCGGTCTCGTCCTGTACGGAGCGAGTTCGGCGCTGCTGG (double strand) [Bidirectional intergenic region SCO1417-8]	no binding
TGGCCGTTTCAGTCCTCCGGGAAGCCGGTATTCCGGGGGCGTGTGCGCCGAAGTATGGAGAAGATCTGCATAATCTCTGGAGGTCGCGAGGGGGTCGCGAGGGGAGGGACGAACGCGTGGATCAGCAGAAGGAGCCGTCGCAGGACCGGCCGGCGGGGGCCGCCTGCCCGGAGTGCGGCACACCCAGGGCGGCGGACAACACC (double strand) [Coding region of SCO2345]	no binding
CGCTGCCAGGAGTTGAGGATGCCCTCGGGCACGACCGCCGCAGGCAGTTCCGCGTTCTGAAGGAACTTCAGGCGTGCTCGCGCGATGGTTCGGTCGCGCGCTGTGCTGTCACTGAGCATGGCGCCCCTCCGATGAGCGTGTTTCCGCCATATTACGAACGCGTTTGCACCTGTCAACGGGGGGTTGGGTACGGCTTTTCCCCGCGTTCGCCGTGCCCTGATCAGGGGCGGGCCGGGTGTGTTCCACATTGAAAAAGTCGACGGCGCTCCCCGCCCGCACGCTGTTGGGCAGCACCGCACGAGAGCGCGGAGGCTCCCCGCCGAGCAGTCGAACCCTGGAGGACCCAT (double strand) [Bidirectional intergenic region SCO0255-6]	binds
GCGACCTCGCCTGGTTCCACGACATGCACATCGGCTACATGCCGTACTACATCAACGCGTTCGCCTTCTACGGCCTGCTCACCGAGCTGTGCGCCCGCTGGCTCGGCAGCGACGGCGTGGGCCTGCAGAACCGCGTCAAGACCGACATGTCCAGCCTGCGCACCGTCGAGTCGGCCAAGGAGGTCTGGTCGGTCGCCCAGGCCGCCAAGAACGA (double strand) [Coding region of SCO5896, redH]	binds
GCAGGGCGCGAGCTTCTCGGTGATCGACATCACGACCACCGAGGGGGAGATGCCCGAGGTCACGGACGTCTCCTGAGCCCTGTCCGGACACCCCGCCGGGCCATGGCATGATCGAGCGCATGCGTGAACGTGCAGTGGCCGCGTGCGACGGGGCTTCGAAGGGAAACCCGGGTCCGGCCGGCTGGGCCTGGGTGGTCGCCGACGCG (double strand) [Promoter region of SCO7284]	no binding
GGTTTCATGCTAGGGCAGGACGGGCGGCAGCCGCGGATCACCCGCGAGTCGTTCAACGTTCACCTTCCCCGCCGATTCTCCTCGAAGCCGCGCACGGCGGCGGTCTTCAGGAGGAACACGCATGGGGCACGGACACGGACACCCGCACGGTCACCACCACCACGGACATACGCACGACCACGAGCACGCCACCGAACAG (double strand) [Promoter region of SCO6145]	no binding
CCGGAGCGTTCAGCGTTCGTTTATCTCCCCCTGGCACTGTCATCTCCGTCAGACCGTCGCATCGGGGGGCAGACGGATGACGACCGAGCCCACCAGTTAGTGTGCGGCTCCGCGCGCCCGTCCGGCAGCCTACGGGGGAGCTACCGGACGGGCGTTGCTACCTCGTCACGACCCATGAGGAGCGAAGTCCATGAGCGACAAGATGAAGGACGCGGACGCCACA (double strand) [Promoter region of SCO4425, afsS]	binds
CCTCCCCCGCCTCAACAGCGTGGCGGTGCGGGCGATGGGCGTCGGGACGGGGCTGCTGACGGTACGGGTGGAGTTGGAGGGGCAAAGCCGAAGAAGCTGATGGAGAACCTGTGATCGGCGTCTCCCACGGCTGACGTGGTCGGCATGAACAAGGCAAACTGACGTGGTTGCTCAGGATGTCTAGGGGGACGGCATGGACGGTGGACCGCGGGTTCCGGAGCAGCGGCGTCCCGGATTCCCGGCGGAAGAGGAGGA (double strand) [Promoter region of SCO4426, afsR]	binds
CAGCCCCTGCTCGGTGAACACCTCGTGGGCCGCCTCCAGCAGAAGCTCCCGGTTGCGCCGCGCGTCGCGTCGCTGCCGGGGCGCTCCGTCGCGTGCGCCGACGGTCATCCTCGCCCTCCGGGTCGTACGAACCGGGGAGTGCTCCCCGTGCTCCGAACACCGATGCTATCGTCGGCCGAGGAAATGGGGAGTGCTCCCCGTTTAATTGTCTCTCTCACCGGAGGTCCCATGACCGCGCCCACCTATGAGGAACTGGCCGCCCTGCGGGCCGTGGGCGCCGTGCACCGGGTGTTCGTGCCGGGCAGCGGGGAGAGCCGGCTGGTGGTGACGCGCGACGCGGCACGGGCCGCGCTCACCGACCCGCGGCTGCGCAACGACATCCGGCACTCCGCTTC (double strand) [Bidirectional intergenic region SCO3769-70]	no binding
TCACCTCGACCGGTGGCGTGATCACCGCGGCCGGGCTGGTGCTGGCCGGGACCTTCGCCGCGCTGGCCACGCTGCCGCTGGTCTTCATCGCCGAGCTCGGATTCACGGTCGCGGTGGGCGTCCTGCTCGACACCATGATCGTGCGATCGGTCCTGGTCACCGCGCTCACTCTCGATGTCGGCCGGTGGATGTGGTGGCCGCACCCGCTCGCCCGGCGCGAGGACCCTTC (double strand) [Coding region of SCO5084, actII-3]	no binding
GACGCACATCATGGAGACCGTCGACATCGGCGTCCCCCTGCGCACCGTCTACGACCAGTGGACGCAGCTCCAGGACTTCAGCGACTTCACCAAGGGCGTGCAGAGCGTCAGCCCCCACGACGAGACGACCTCGGACTGGACCGCCAAGATCGCTTTCTCGACCCGCAGCTGGAAG (double strand) [Coding region of SCO0654]	no binding
CGGTACGGCCTCAACACATTGACGGTGGTGTCGGGAATCACCCGTCCTGTGTTGAGGCCCGAATCCGATCGTTCGGTGGATGACGGGTGGGGGAGTGCTTGCCACGATGGACCCGGTTCGAAAACTGGTCCGGAGCCAGCCAAAGATCGGGCGGCACCCCGTCGCGGCCGGTCAGGACGGCCGCGACCGGCACCCCATCCGCTCATGGGAGTGCGGAGAACG (double strand) [Promoter region of SCO5877, redD]	no binding
CGAAGCCCAGCCGTCGATAGCCGAGCACCTCCCGGAGCCGCTCCACGTCGTCCGCCGAATAGGCCCGGTACCCGGCAGCGGTGCGCCCCGACGGCCGAACGAGCCCGATCTCGTCATAGTGATGCAGCGTGCGGACGCTCACGTGGGCCAGCTCGGCCACGCGCCCCACGGTCCAGTGATCCTCCACGGCCCCGACTA (double strand) [Coding region of SCO7698]	no binding
TTCGGCAACGGCAACGGCACGGGGGACGGCACGGAGGGCGCGTACAACGACACGGTCTTCGGCACCTACATGCACGGCCCCGTGCTGGCCCGCAACCCGCTGATCGCGGACCTGCTGCTCAAGCTGGCCCTCGACGTGAACGCGCTGCCGCCGACCGACGACCGCTGGTACGAGGCGCTGCGCAACGAGCGCATCGCGGCCGCGCAGCAGCCTGCCTGACCCTGGCGGGGCGGGCCCGTCTGATGCCCCGTCCGCACAGGTGAGCGGACTCGTCCAGTAGGCGGACGCACGGTTCGGTCCCGCCCCCCGATGCCGCTAGGGTGGCGGGGATCGAGCCGGACAGCGCGGTCCGGACCCGTGCCACGTTGAGAAGGTATTTCGGGCTATGCGCATTGGTGTCCTCACGTCCGGCGGCGACTGCCCCGGCCTGAACGCCGTCATCCGGTCCGTCGTGCACCGCGCCGTCGTCGACCACGGCGACGAGGTCATCGGTTTCCGGGACGGCT (double strand) [Promoter region of SCO1214]	no binding
GGGGTCACCGGGTGGCTGCACGCCGTGGACATCGACTCGGGGGCGCAAGTCGGGGCCGGGGCGGACCAGCCGGTCTGCACGGCCAGTGTCCACAAGCTGTGCGTGCTGGTGACGCTGCACGAGCTGGCGGCGGCCGGGGAACTGGACCTCACCGAGCGGATCGAGTGCCCGCCGACCGGCCGCACGCCCGGGCCCACCGGGCTCGCGGCCATGCTCGA (double strand) [Coding region of SCO3774]	no binding
CGGATACTCGCACAAGCAGAATTTAAGAATTCTACTCAGCGCAGCTTCCCGTATTCTTCTGCCCGCTTTCTTCGGACCTAAACACAAAGATTTCACGACTAACGATCTTCACATTTCGGACACGTCTCGCACGGGTTACGCGATTGTGACCCGATCCACATGCTGCCCGATTTGCGGCTTACGCACCCGTCAAATCGCCCCATAACGCCGTCGTCTCGCGCGGAAGCACGCGCCCGCGTGATAACACAAGCGGCACTCATTCGTAACCCCATCCGGCGATGCAATTTCGAATTTCGCTGGGTAAATTCAATTTGCATGACTGCCGCGCAAGCAGACCTGCAAATCGATCGTCC (double strand) [Bidirectional intergenic region SCO1863-4, ectA]	binds
AGGCTGCCGCGCGAGCGAGCAGTAGCGTGCGGTCATGGGCATCAGGGTGCCGTCCGGGCCGGTCCCGGCGCCTGAGTCGGGGGGTACTCAAGTCACCCTGTATCAGGGATGAGTATGCCGACTCATGTTGCCGTGACGACTTCTCTGCGGGACGCGAAGAGGCTGGAGACCCCCTGGCCGTTCACCGGGCGGGCGGACGAACTGGAGCTGGTGCGCGGGTCCGTGG (double strand) [Bidirectional intergenic region SCO6992-3, absR1-2]	no binding
CGAGGACGTCGAGGTCTCCGGCCCCGGCTTCCTCAACATCACCGTCGCCGACCGGGCGATCACCGCGAACCTGGCCGCGCGGCTCGCGGACGGCGAGCGCCTCGGCGTGCCGTTGAAGCAGGACGCGGGCACCACGGTCGTCGACTACGCCCAGCCGAACGTGGCGAAGGAGATGCACGTCGGCCACCTGCGTTCCGCGGTCATCGGCGACGCCCTGCGCTCCATGCTCGACTTCACCGGCGAGAAGACGATCGGCCGGCACCACATCGGCGACTGGGGCACCCAGTTCGGCATGCTCATCCAGTACCTGTTCGAGCACCCCGGCGAGCTGGCCCCGGCCGGGGACATCGACGGCGAGCAGGCCATGTCGAACCTGAACCGGGTGTACAAGGCGTCGCGCGCGGTCTTCGACACGGACGAGGAGTTCAAGGAGCGGGCCCGGCGGCGGGTCGTCGCCCTGCAGTCCGGCGACAAGGAGACCCTCGATCTGTGGCAGC (double strand) [Coding region of SCO3304, argS]	no binding
